Test results: article PMC5974751, “NKp44-Derived Peptide Binds Proliferating Cell Nuclear Antigen and Mediates Tumor Cell Death” (Frontiers in Immunology, 2018)
Results are given in words; binding and its absence hold for the method and conditions named.

Protein sequences, listed by entry. Tags and fused reporters are not part of them. Lines headed by an entry give the natural chain unless they say otherwise; changes in a name come on top.
UniProt O95150: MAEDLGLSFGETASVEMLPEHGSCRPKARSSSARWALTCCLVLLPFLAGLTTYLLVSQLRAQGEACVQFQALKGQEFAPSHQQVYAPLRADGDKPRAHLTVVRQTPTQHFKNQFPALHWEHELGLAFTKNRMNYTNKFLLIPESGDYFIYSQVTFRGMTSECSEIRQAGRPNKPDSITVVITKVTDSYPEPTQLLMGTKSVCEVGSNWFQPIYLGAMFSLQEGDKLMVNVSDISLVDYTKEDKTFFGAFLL

Key:
HNF4 = experiment: ELISA; plates coated overnight at 4°C with 2 µg/ml recombinant protein; blocked with PBS + 2.5% skim milk; 0-8 µM biotinylated NKp44-derived peptides, 2 h at room temperature; streptavidin-HRP; both purified
TL1A = TL1A (UniProt O95150); experiment: as above

binding (HNF4): no binding (tested: 5 µg/ml)
binding (TL1A): no binding (tested: 5 µg/ml)
Binder: EASALVCIRLVTSSKPRTVA (biotin (N-terminal)) [biotinylated NKp44-derived peptide #8]
